Experimental data reported in the supplement of paper PMC6411743.
± gives the standard deviation of the averaged measurements. The list shows a part of the results, in another mix than the full data.

Chains of the proteins cited; added tags and fusions are not shown. Lines headed by an entry give the natural chain unless they say otherwise; changes in a name come on top.
UniProt Q70IA6: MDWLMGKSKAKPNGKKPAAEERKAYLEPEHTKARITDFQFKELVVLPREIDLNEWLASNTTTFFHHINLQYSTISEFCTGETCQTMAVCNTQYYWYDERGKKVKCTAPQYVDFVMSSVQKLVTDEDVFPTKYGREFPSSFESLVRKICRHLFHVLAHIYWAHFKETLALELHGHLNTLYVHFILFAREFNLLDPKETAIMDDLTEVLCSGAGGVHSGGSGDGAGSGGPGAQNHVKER
UniProt Q92504: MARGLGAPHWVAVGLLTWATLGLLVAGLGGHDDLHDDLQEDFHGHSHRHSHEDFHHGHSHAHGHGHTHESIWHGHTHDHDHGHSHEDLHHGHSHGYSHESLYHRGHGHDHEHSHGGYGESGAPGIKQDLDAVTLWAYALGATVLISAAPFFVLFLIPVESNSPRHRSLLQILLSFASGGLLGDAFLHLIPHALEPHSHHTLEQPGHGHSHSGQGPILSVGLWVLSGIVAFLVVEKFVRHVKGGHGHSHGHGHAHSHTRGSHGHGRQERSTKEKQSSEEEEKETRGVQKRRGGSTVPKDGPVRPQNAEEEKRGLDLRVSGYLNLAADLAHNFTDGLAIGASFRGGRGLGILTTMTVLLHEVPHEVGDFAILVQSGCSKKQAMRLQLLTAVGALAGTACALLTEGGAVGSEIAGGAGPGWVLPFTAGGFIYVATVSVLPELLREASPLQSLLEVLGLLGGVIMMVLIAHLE
UniProt Q8IWB9: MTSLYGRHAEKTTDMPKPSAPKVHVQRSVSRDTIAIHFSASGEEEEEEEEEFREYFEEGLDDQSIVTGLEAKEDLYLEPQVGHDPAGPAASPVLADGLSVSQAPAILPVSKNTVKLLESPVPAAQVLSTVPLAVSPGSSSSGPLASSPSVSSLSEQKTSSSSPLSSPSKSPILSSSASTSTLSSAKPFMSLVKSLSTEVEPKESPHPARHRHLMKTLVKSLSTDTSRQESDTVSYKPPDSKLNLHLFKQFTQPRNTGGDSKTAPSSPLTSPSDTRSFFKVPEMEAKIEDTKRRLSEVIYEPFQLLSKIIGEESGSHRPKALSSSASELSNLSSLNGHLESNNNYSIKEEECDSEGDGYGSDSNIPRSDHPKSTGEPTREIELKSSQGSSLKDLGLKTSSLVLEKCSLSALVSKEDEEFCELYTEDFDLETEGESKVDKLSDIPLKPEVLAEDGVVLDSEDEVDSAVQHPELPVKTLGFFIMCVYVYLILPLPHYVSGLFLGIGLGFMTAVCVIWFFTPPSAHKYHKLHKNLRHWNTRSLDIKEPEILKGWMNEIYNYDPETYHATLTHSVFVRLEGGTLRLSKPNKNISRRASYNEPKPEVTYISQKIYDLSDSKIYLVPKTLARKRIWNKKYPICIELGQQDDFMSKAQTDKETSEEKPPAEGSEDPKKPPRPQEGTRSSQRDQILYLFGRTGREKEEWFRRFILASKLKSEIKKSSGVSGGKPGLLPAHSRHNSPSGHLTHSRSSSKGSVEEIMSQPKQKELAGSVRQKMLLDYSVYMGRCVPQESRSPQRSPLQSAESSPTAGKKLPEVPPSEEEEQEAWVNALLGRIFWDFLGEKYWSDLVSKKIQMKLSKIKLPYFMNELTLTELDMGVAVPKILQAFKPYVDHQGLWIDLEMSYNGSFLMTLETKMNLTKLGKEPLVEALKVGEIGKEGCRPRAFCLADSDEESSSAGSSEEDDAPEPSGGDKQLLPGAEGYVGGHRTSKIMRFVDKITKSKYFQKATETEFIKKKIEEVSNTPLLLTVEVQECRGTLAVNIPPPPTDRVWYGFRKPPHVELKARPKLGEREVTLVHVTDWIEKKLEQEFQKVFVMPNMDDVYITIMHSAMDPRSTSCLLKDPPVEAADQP
UniProt P46087: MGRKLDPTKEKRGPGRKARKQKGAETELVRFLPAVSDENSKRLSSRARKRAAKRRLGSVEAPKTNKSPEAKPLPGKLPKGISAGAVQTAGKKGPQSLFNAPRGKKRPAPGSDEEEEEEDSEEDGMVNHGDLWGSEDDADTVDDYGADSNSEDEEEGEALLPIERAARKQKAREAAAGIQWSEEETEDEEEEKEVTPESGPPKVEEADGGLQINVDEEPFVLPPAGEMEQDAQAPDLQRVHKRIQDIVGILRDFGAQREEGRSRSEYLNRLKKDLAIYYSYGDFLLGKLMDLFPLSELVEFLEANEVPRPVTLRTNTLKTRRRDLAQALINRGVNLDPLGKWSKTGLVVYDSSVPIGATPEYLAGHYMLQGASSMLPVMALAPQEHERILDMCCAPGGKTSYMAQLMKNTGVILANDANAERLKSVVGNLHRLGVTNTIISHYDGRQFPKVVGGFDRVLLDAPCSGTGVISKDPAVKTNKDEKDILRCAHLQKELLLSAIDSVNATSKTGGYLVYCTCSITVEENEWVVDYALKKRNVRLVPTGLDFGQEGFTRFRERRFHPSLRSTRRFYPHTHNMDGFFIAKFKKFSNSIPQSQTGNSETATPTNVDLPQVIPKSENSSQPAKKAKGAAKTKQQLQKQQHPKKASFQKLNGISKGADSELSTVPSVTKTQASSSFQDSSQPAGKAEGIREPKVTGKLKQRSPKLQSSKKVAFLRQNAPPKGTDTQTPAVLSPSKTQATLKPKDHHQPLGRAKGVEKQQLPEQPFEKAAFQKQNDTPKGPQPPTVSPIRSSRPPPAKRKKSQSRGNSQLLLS
UniProt Q8N5I9: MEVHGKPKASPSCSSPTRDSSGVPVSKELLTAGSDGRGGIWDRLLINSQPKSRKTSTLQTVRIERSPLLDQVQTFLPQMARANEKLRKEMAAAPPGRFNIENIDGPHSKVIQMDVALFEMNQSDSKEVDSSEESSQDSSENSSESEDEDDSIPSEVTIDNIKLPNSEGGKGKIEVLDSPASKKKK
UniProt Q9H299: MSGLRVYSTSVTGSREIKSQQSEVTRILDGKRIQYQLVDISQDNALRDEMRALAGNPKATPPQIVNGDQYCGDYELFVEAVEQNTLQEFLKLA
UniProt Q9NVX7: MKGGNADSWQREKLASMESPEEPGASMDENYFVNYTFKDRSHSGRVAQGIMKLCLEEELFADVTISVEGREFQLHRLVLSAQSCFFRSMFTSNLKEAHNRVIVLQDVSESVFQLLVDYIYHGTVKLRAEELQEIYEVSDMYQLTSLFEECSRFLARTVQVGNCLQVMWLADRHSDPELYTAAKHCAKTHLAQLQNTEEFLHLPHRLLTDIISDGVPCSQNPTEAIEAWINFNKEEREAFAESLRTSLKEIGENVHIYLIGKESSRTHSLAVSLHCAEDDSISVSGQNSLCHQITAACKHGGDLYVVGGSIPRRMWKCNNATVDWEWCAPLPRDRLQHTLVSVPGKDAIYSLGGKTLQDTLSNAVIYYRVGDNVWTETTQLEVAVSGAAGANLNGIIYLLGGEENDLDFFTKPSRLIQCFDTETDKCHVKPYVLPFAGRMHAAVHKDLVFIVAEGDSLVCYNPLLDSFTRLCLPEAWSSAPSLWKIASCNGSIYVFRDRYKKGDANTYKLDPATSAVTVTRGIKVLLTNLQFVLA
UniProt Q6DD87: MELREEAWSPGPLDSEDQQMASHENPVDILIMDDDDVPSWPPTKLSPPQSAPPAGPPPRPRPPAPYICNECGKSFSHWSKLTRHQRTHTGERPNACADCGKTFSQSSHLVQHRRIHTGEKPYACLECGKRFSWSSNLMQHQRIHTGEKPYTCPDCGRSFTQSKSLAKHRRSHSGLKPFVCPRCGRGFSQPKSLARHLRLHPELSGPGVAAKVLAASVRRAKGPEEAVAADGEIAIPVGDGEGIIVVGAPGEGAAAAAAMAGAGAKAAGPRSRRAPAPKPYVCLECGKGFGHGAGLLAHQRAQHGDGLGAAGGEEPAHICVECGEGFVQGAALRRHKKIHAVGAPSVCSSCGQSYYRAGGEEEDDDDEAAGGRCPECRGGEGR
UniProt Q9Y6I9: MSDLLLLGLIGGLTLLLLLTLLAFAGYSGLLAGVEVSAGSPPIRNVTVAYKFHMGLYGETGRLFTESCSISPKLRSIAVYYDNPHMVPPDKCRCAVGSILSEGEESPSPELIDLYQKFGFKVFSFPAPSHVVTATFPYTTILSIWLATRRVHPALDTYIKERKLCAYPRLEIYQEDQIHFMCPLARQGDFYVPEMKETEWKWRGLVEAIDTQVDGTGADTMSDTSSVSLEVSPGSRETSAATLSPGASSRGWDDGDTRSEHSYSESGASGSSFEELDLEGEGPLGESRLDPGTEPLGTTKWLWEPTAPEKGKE
UniProt Q9NXU5: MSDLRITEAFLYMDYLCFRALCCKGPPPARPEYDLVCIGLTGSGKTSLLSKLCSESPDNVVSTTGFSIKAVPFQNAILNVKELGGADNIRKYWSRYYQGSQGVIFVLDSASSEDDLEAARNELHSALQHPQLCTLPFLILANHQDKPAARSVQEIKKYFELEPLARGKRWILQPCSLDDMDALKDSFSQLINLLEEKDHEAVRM
UniProt Q96RQ1: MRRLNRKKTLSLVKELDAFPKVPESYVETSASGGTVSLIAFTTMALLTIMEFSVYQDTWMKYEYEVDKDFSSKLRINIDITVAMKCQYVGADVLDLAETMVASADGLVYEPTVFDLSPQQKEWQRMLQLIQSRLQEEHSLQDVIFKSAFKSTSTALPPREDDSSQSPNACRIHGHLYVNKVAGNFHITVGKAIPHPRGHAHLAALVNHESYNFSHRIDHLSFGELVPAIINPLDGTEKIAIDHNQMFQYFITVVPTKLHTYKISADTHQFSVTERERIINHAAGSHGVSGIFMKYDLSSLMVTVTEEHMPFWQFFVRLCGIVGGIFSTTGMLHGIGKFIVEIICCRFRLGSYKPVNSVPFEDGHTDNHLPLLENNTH
UniProt Q16760: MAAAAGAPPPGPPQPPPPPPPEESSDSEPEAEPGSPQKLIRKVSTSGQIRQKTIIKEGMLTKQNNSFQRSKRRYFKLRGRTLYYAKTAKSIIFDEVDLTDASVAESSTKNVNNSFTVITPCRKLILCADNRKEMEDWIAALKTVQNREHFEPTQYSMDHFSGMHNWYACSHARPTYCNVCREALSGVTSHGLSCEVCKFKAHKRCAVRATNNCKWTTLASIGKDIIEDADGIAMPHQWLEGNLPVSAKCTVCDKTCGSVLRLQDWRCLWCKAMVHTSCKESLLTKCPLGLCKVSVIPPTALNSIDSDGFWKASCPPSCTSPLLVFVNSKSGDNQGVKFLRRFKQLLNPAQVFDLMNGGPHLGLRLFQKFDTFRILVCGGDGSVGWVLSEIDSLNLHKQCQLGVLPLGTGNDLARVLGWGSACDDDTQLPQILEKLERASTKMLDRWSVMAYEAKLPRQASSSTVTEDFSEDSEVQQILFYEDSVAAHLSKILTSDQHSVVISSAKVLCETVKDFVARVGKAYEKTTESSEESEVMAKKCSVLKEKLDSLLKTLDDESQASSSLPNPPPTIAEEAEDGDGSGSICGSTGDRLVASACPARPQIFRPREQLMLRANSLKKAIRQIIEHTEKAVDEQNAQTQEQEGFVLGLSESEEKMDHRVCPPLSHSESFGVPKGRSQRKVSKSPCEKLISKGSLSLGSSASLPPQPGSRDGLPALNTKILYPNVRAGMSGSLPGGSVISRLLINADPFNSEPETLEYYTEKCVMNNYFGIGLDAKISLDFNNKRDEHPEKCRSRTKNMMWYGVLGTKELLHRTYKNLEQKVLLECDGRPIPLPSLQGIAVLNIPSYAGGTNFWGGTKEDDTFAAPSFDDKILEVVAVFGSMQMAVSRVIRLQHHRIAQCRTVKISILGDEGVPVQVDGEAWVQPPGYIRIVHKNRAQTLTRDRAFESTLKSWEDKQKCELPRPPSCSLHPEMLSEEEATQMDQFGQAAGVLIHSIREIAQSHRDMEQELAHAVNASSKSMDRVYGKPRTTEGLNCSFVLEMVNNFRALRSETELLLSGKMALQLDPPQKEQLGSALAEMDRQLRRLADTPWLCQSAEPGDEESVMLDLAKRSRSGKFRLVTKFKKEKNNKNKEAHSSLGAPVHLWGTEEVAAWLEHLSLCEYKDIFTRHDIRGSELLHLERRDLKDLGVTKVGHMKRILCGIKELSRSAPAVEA

compound: Nc1ncnc2c1ncn2[C@@H]1O[C@H](COP(=O)(O)OP(=O)(O)NP(=O)(O)O)[C@@H](O)[C@H]1O [adenylyl imidodiphosphate]; experiment: NP40-soluble protein abundance relative to vehicle (solubility fold change) (ratio); higher = more soluble protein in presence of AMP-PNP; details: concentration: 8mM
Procedure, shortened: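 Across three independent experiments, values are fold changes against the detergent-processed vehicle for each replicate, based on vsn-normalised intensities. The samples were Jurkat crude lysate treated with eight concentrations (0.1 to 10 mM) for 10 min at room temperature and then 3 min at 37 °C. Lysate was solubilised with 0.8% NP40 and benzonase, ultracentrifuged, and the supernatant analysed by TMT-labelled LC-MS/MS.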

Target	NP40-soluble protein abundance
A0A087WVS8|Q70IA6 and related entries (UniProt Q70IA6)	0.959 ± 0.026
A0A087WTX2|Q92504 (UniProt Q92504)	0.9224 ± 0.0044
A0A087WVA8|Q8IWB9 and related entries (UniProt Q8IWB9)	0.987 ± 0.048
A0A087WV73|P46087 and related entries (UniProt P46087)	1.34 ± 0.094
A0A087WT30|Q8N5I9 (UniProt Q8N5I9)	1.14 ± 0.035
A0A087WV23|Q5T123 and related entries (UniProt Q9H299)	0.973 ± 0.042
A0A075B6T4|Q9NVX7 and related entries (UniProt Q9NVX7)	0.981 ± 0.034
A0A075B716|H0YN88 and related entries (UniProt P08708)	0.89 ± 0.087
A0A087WUD1|Q6DD87 (UniProt Q6DD87)	0.983 ± 0.027
A0A087WUS0|E7ETK0 and related entries (UniProt P62847)	0.892 ± 0.097
A0A087WTU3|Q9Y6I9 (UniProt Q9Y6I9)	1.01 ± 0.015
A0A087WUW9|Q9NXU5 (UniProt Q9NXU5)	0.974 ± 0.044
A0A087WU02|F8VPA6 and related entries (UniProt Q96RQ1)	0.971 ± 0.064
A0A024R7E8|K7EMV4 and related entries (UniProt P60002)	1.14 ± 0.066
A0A087WVQ6|Q00610 and related entries (UniProt Q00610)	0.839 ± 0.014
A0A087WUZ9|Q16760 and related entries (UniProt Q16760)	1.09 ± 0.045
A0A087WU64|A6NMQ1 and related entries (UniProt P09884)	0.9226 ± 0.0051

Given in CSV form: part of the list above.
Target,NP40-soluble protein abundance
A0A087WVS8|Q70IA6 and related entries (UniProt Q70IA6),0.959 ± 0.026
A0A024R7E8|K7EMV4 and related entries (UniProt P60002),1.14 ± 0.066
